In patent US20190290710A1, “USE OF GLUC[…] TO ENHANCE RECOMBINANT ADENO-[…] YIELD” (priority 2016, published 2019):
For at least one compound, name, drawing or mass did not settle the structure.

How the values were obtained:
Type in all cases: cell-based
HeLa host cell line [1] = test: rAAV yield by qPCR, HeLa host cell line in shaker flasks, glucocorticoid analogs; conditions: shaker flask, 0.1 and 1 μM, 4 days, FIG. 2
Experimental: FIG. 2 is a bar graph depicting the effect of glucocorticoid analogs on rAAV production from a HeLa producer cell line cultured in a shaker flask. Hydrocortisone (hydr), predinosolone (pred) and dexamethasone (dex) were added at the indicated concentrations and after 4 days rAAV yield (GC/ml) was measured by qPCR. Each value represents the mean of two independent experiments.
DNase-resistant particles (DRP) can be quantified by real-time quantitative polymerase chain reaction (qPCR) (DRP-qPCR) in a thermocycler (for example, an iCycler iQ 96-well block format thermocycler (Bio-Rad, Hercules, Calif.)). Samples containing rAAV particles are incubated in the presence of DNase I (100 U/ml; Promega, Madison, Wis.) at 37° C. for 60 min, followed by proteinase K (Invitrogen, Carlsbad, Calif.) digestion (10 U/ml) at 50° C. for 60 min, and then denatured at 95° C. for 30 min. The primer-probe set used should be specific to a non-native portion of the rAAV vector genome, for example, the poly(A) sequence of the protein of interest. […]
Stock solutions of dexamethasone (dex), prednisolone (pred), and hydrocortisone (hydr) dissolved in DMSO were added to the cell culture to final concentrations of 0.1 and 1 μM. After 4 days, rAAV yield was determined by measuring both the secreted (extracellular) and total rAAV in the cell culture harvest by qPCR.

HeLa host cell line [2] = test: rAAV yield by qPCR, HeLa host cell line in shaker flasks, dexamethasone; conditions: shaker flask, 4 days, concentrations as low as 0.01 μM (0-1 μM tested), FIG. 1
[3] = tested on: viral genome amplification in HeLa host cell line; test: Viral genome amplification by qPCR, 3 L bioreactor; conditions: 1 μM, days 0-3, intracellular samples, FIG. 5
[4] = tested on: Rep and Cap viral proteins in HeLa host cell line; test: Rep and Cap viral protein expression, Simple Western immunoassay, 3 L bioreactor; conditions: 1 μM, days 2 and 3, FIG. 4
HeLa host cell line [5] = test: rAAV yield by qPCR, HeLa host cell line in 3 L bioreactor; conditions: 1 μM, days 3, 4 and 5, FIG. 3

C[C@@H]1C[C@H]2[C@@H]3CCC4=CC(=O)C=C[C@]4(C)[C@@]3(F)[C@@H](O)C[C@]2(C)[C@@]1(O)C(=O)CO [dexamethasone]
rAAV yield (extracellular and total) (HeLa host cell line [1]): increased rAAV yield | extracellular (secreted) rAAV yield (HeLa host cell line [2]): increased | total rAAV yield (HeLa host cell line [2]): increased | viral genome amplification (GC/cell, normalized to Day 0) [3]: increased | Cap viral protein production [4]: increased | Rep viral protein production [4]: increased | extracellular (secreted) rAAV yield (HeLa host cell line [5]): increased | total rAAV yield (HeLa host cell line [5]): increased
